Measured values reported in PMC2637609.
These are yes or no findings as the source states them, for the method shown. Binding seen in cells or lysates may run through a third protein. Some binding calls cover weakened binding; strength is not graded here. For some assays here: Sequences can lack the tags named with a protein.

T1: Coilin (Drosophila (endogenous in larvae)) (UniProt A1Z7A8)
T1 sequence: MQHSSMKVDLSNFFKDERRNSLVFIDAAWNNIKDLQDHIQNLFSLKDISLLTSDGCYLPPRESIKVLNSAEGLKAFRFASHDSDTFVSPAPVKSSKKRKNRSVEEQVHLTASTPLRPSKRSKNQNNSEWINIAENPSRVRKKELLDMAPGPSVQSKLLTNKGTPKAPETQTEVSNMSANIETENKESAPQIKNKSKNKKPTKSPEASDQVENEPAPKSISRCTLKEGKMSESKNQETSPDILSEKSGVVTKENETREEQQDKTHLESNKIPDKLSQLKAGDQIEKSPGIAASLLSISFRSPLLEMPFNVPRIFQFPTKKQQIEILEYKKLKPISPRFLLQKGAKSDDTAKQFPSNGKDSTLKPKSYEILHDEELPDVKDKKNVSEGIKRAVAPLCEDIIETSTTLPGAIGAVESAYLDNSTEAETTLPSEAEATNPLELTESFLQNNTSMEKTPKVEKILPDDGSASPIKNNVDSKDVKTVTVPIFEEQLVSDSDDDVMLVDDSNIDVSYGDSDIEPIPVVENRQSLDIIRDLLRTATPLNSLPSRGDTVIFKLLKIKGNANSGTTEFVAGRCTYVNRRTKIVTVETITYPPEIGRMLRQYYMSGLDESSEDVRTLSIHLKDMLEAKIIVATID

T2: intrinsic PARP1 protein (Drosophila (endogenous in wild-type Drosophila)) (UniProt P35875)
T2 sequence: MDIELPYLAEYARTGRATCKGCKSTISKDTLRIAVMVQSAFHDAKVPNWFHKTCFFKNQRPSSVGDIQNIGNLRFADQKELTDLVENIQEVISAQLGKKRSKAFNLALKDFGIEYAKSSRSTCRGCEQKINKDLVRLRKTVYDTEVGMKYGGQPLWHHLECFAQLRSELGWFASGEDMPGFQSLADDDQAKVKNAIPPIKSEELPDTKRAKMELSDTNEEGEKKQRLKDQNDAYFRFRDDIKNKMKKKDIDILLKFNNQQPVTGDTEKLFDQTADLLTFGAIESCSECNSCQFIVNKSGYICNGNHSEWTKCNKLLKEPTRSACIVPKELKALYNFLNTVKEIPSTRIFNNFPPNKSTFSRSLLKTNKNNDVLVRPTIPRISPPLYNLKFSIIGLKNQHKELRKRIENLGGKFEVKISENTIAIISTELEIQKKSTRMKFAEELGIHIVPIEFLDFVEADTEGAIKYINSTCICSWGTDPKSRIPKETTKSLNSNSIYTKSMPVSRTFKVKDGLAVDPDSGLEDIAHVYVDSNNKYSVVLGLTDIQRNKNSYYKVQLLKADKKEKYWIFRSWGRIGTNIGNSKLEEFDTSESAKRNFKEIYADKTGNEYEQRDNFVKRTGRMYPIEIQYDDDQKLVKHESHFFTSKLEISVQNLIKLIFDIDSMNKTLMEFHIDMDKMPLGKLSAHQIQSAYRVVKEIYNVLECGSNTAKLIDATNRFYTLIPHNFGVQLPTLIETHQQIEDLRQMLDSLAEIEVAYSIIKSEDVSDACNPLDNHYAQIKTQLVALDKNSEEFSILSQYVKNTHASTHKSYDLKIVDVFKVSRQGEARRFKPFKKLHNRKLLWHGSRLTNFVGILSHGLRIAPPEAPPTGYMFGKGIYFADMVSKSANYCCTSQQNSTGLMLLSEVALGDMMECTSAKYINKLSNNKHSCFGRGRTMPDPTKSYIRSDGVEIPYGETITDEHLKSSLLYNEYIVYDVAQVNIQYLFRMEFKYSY

T3: PARP1-ECFP (Drosophila) (UniProt P35875)
T3 sequence: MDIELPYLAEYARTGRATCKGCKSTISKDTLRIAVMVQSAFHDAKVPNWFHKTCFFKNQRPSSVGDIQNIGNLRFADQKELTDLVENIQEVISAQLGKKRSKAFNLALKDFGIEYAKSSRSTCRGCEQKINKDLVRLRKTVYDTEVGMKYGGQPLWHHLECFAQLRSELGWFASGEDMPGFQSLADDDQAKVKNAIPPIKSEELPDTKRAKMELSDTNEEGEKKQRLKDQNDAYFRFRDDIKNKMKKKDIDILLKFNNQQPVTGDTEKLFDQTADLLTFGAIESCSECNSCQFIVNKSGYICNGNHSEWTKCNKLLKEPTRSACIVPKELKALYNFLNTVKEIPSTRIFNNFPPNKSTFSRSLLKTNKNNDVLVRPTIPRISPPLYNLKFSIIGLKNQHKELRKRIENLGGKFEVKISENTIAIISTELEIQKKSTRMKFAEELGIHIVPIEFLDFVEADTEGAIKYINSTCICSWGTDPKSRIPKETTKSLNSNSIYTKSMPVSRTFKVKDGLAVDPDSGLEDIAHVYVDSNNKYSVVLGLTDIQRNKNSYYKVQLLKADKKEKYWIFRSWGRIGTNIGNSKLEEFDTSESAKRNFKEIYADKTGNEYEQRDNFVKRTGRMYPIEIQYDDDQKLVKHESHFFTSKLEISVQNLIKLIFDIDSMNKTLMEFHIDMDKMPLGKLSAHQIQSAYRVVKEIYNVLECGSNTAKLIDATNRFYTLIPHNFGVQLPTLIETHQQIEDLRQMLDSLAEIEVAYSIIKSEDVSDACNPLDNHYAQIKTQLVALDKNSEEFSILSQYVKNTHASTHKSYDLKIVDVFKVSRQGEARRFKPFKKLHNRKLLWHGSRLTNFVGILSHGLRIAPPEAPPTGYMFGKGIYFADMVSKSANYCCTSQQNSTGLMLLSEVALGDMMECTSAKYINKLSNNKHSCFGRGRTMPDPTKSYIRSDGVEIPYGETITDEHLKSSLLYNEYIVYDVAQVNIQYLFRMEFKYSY


Legend:
[1] = biological target: T1, Coilin (Drosophila (endogenous in larvae)); assay: co-IP; guinea pig anti-Coilin antibody, Protein-G Sepharose; total protein extracts of Drosophila PARP1 mutant stock expressing PARP1-ECFP or PARPe-EGFP (wild type as control); Western blot
[2] = biological target: T2, intrinsic PARP1 protein (Drosophila (endogenous in wild-type Drosophila)); assay: co-IP; rabbit antibody against the C-terminal domain of PARP1 (anti-GFP as control); extracts of wild-type Drosophila; Western blot
PARP1-ECFP (Drosophila) = biological target: T3, PARP1-ECFP (Drosophila); assay: co-IP; rabbit anti-GFP antibody, Protein-G Sepharose; extracts of Drosophila stocks expressing PARP1-ECFP or PARPe-EGFP (wild type as control); Western blot

| binding [1] | binding [2] | binding (PARP1-ECFP (Drosophila)) | Binder |
| --- | --- | --- | --- |
| binds |  |  | PARP1-ECFP (enzyme, UniProt P35875 1-994) MDIELPYLAEYARTGRATCKGCKSTISKDTLRIAVMVQSAFHDAKVPNWFHKTCFFKNQRPSSVGDIQNIGNLRFADQKELTDLVENIQEVISAQLGKKRSKAFNLALKDFGIEYAKSSRSTCRGCEQKINKDLVRLRKTVYDTEVGMKYGGQPLWHHLECFAQLRSELGWFASGEDMPGFQSLADDDQAKVKNAIPPIKSEELPDTKRAKMELSDTNEEGEKKQRLKDQNDAYFRFRDDIKNKMKKKDIDILLKFNNQQPVTGDTEKLFDQTADLLTFGAIESCSECNSCQFIVNKSGYICNGNHSEWTKCNKLLKEPTRSACIVPKELKALYNFLNTVKEIPSTRIFNNFPPNKSTFSRSLLKTNKNNDVLVRPTIPRISPPLYNLKFSIIGLKNQHKELRKRIENLGGKFEVKISENTIAIISTELEIQKKSTRMKFAEELGIHIVPIEFLDFVEADTEGAIKYINSTCICSWGTDPKSRIPKETTKSLNSNSIYTKSMPVSRTFKVKDGLAVDPDSGLEDIAHVYVDSNNKYSVVLGLTDIQRNKNSYYKVQLLKADKKEKYWIFRSWGRIGTNIGNSKLEEFDTSESAKRNFKEIYADKTGNEYEQRDNFVKRTGRMYPIEIQYDDDQKLVKHESHFFTSKLEISVQNLIKLIFDIDSMNKTLMEFHIDMDKMPLGKLSAHQIQSAYRVVKEIYNVLECGSNTAKLIDATNRFYTLIPHNFGVQLPTLIETHQQIEDLRQMLDSLAEIEVAYSIIKSEDVSDACNPLDNHYAQIKTQLVALDKNSEEFSILSQYVKNTHASTHKSYDLKIVDVFKVSRQGEARRFKPFKKLHNRKLLWHGSRLTNFVGILSHGLRIAPPEAPPTGYMFGKGIYFADMVSKSANYCCTSQQNSTGLMLLSEVALGDMMECTSAKYINKLSNNKHSCFGRGRTMPDPTKSYIRSDGVEIPYGETITDEHLKSSLLYNEYIVYDVAQVNIQYLFRMEFKYSY |
|  | binds | binds | Coilin (protein, UniProt A1Z7A8 1-634) MQHSSMKVDLSNFFKDERRNSLVFIDAAWNNIKDLQDHIQNLFSLKDISLLTSDGCYLPPRESIKVLNSAEGLKAFRFASHDSDTFVSPAPVKSSKKRKNRSVEEQVHLTASTPLRPSKRSKNQNNSEWINIAENPSRVRKKELLDMAPGPSVQSKLLTNKGTPKAPETQTEVSNMSANIETENKESAPQIKNKSKNKKPTKSPEASDQVENEPAPKSISRCTLKEGKMSESKNQETSPDILSEKSGVVTKENETREEQQDKTHLESNKIPDKLSQLKAGDQIEKSPGIAASLLSISFRSPLLEMPFNVPRIFQFPTKKQQIEILEYKKLKPISPRFLLQKGAKSDDTAKQFPSNGKDSTLKPKSYEILHDEELPDVKDKKNVSEGIKRAVAPLCEDIIETSTTLPGAIGAVESAYLDNSTEAETTLPSEAEATNPLELTESFLQNNTSMEKTPKVEKILPDDGSASPIKNNVDSKDVKTVTVPIFEEQLVSDSDDDVMLVDDSNIDVSYGDSDIEPIPVVENRQSLDIIRDLLRTATPLNSLPSRGDTVIFKLLKIKGNANSGTTEFVAGRCTYVNRRTKIVTVETITYPPEIGRMLRQYYMSGLDESSEDVRTLSIHLKDMLEAKIIVATID |
| no binding |  | no binding | disk-large (Dlg) (protein, UniProt P31007 1-970) MPVKKQEAHRALELLEDYHARLSEPQDRALRIAIERVIRIFKSRLFQALLDIQEFYELTLLDDSKSIQQKTAETLQIATKWEKDGQAVKIADFIKSSNLNRNCAYEFNNDASSNQTNQSALNQNPIANNVSAQAQAEALSRTFKSELEEILNQRMRIESDTENAKEPTVEQQQKQQQAQQRSSRSPQQQNPQQQQGSKSRSGSQTVNGDDSWLYEDIQLERGNSGLGFSIAGGTDNPHIGTDTSIYITKLISGGAAAADGRLSINDIIVSVNDVSVVDVPHASAVDALKKAGNVVKLHVKRKRGTATTPAAGSAAGDARDSAASGPKVIEIDLVKGGKGLGFSIAGGIGNQHIPGDNGIYVTKLMDGGAAQVDGRLSIGDKLIAVRTNGSEKNLENVTHELAVATLKSITDKVTLIIGKTQHLTTSASGGGGGGLSSGQQLSQSQSQLATSQSQSQVHQQQHATPMVNSQSTEPGSRYASTNVLAAVPPGTPRAVSTEDITREPRTITIQKGPQGLGFNIVGGEDGQGIYVSFILAGGPADLGSELKRGDQLLSVNNVNLTHATHEEAAQALKTSGGVVTLLAQYRPEEYNRFEARIQELKQQAALGAGGSGTLLRTTQKRSLYVRALFDYDPNRDDGLPSRGLPFKHGDILHVTNASDDEWWQARRVLGDNEDEQIGIVPSKRRWERKMRARDRSVKFQGHAAANNNLDKQSTLDRKKKNFTFSRKFPFMKSRDEKNEDGSDQEPFMLCYTQDDANAEGASEENVLSYEAVQRLSINYTRPVIILGPLKDRINDDLISEYPDKFGSCVPHTTRPKREYEVDGRDYHFVSSREQMERDIQNHLFIEAGQYNDNLYGTSVASVREVAEKGKHCILDVSGNAIKRLQVAQLYPVAVFIKPKSVDSVMEMNRRMTEEQAKKTYERAIKMEQEFGEYFTGVVQGDTIEEIYSKVKSMIWSQSGPTIWVPSKESL |
